# Experimental data: article PMC9649770
# Sequences of proteins named here, by UniProt entry; tags and fusion partners are left off.
# UniProt Q14145: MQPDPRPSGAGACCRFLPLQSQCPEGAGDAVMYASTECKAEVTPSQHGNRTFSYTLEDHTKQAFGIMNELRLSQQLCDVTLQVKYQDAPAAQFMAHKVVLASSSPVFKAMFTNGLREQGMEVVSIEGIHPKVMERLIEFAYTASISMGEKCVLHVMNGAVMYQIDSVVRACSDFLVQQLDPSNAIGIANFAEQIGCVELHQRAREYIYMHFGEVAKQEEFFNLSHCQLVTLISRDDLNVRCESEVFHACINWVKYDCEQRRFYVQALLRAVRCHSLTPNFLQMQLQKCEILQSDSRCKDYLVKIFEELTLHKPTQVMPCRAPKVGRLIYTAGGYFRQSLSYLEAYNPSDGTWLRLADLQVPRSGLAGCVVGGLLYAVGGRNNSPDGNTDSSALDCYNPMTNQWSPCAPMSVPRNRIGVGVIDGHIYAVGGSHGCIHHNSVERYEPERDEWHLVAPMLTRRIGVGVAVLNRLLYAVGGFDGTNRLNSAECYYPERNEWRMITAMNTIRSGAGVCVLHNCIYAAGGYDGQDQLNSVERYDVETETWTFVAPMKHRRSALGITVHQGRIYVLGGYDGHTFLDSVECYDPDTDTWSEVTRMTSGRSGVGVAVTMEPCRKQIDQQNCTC
# T1: TurboID N-terminally fused to OTUD1 (human) (UniProt Q5VV17)
# T1 sequence: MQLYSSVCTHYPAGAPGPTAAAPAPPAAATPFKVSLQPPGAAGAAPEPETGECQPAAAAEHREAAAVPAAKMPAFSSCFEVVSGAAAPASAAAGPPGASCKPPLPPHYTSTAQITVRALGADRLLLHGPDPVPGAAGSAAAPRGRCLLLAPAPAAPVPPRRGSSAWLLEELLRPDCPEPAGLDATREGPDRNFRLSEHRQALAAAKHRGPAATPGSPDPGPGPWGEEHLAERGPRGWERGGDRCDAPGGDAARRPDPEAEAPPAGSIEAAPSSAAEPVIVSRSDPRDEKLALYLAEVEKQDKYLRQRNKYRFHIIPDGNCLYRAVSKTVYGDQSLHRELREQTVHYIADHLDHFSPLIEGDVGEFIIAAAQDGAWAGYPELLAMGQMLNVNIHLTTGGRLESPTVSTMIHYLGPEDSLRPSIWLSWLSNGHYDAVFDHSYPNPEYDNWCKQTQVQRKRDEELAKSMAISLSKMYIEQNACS
# Molecular target: T1, TurboID N-terminally fused to OTUD1 (human)
# Test: proximity labelling; TurboID-OTUD1 (control: TurboID only) induced with doxycycline in HEK 293 cells, 50 uM biotin for 1 h, lysis in 8 M urea buffer, streptavidin sepharose, on-bead trypsin digestion, mass spectrometry with label-free quantification
row,binding,Molecule
1,binds,E3-ligase KEAP1 (from UniProt Q14145 1-624)
2,binds,"peroxiredoxin 4 (PRDX4) (protein, UniProt Q13162 38-271) WETEERPRTREEECHFYAGGQVYPGEASRVSVADHSLHLSKAKISKPAPYWEGTAVIDGEFKELKLTDYRGKYLVFFFYPLDFTFVCPTEIIAFGDRLEEFRSINTEVVACSVDSQFTHLAWINTPRRQGGLGPIRIPLLSDLTHQISKDYGVYLEDSGHTLRGLFIIDDKGILRQITLNDLPVGRSVDETLRLVQAFQYTDKHGEVCPAGWKPGSETIIPDPAGKLKYFDKLN"

# These are yes or no findings as the source states them, for the method shown. In cells and extracts the contact can be indirect. Here binding means that the protein was enriched with, or labelled near, the bait; the list need not be complete. Tags and fused reporters may be left off the sequences shown.
